Assay results taken from patent US20090110718A1, “Derivatives of tiacumicin B as anti-cancer agents” (Echem Hightech Co., Ltd., priority 2007, published 2009).

Experiments:
Type in all cases: cell-based
[1] = tested on: MCF7 breast cancer cells; experiment: Cell viability assay (MTT), MCF7; conditions: Homo sapiens, 72 hrs treatment, 1 to 10 μM tested, ± SD, read-out: Observed IC50 for MCF7 breast cancer cells
Procedure: (§1) Experiments were performed using different cancer cell-lines, which were supplied by the American Type Culture Collection (ATCC), Rockville, Md., USA, and maintained in the recommended culturing media. The detailed steps and condition for cell culture are described as the following: MCF7, human breast adenocarcinoma: Minimum essential medium (Eagle) with 2 mM L-glutamine and Earle's BSS adjusted to contain 1.5 g/L sodium bicarbonate, 0.1 mM non-essential amino acids and 1.0 mM sodium pyruvate and supplemented with 0.01 mg/ml insulin, 90%; fetal bovine serum, 10%. Tamoxifen is obtained from Sigma-Aldrich. All test samples were dissolved in absolute ethanol and serial diluted to the testing concentrations. For blank sample, absoluted ethanol was used. The final organic solvent content for all cell assays were less than or equal to 0.1%. The cell viability assay was conducted by using the method described by J. Carmichael, et al in Cancer Research 47:936 (1987). […] After additional 72 hours of incubation at 37° C. under 5% CO2 atmosphere, the cell were then collected and evaluated using MTT assay to assess the cell viability by using the method mentioned above. […] Cultures containing 3000 cells per well were treated with 0, 1, 2.5, 5 and 10 μM (final concentration) of the test samples and the viable cells were counted after 72 hrs. […]

[2] = tested on: T-47D breast cancer cells; experiment: Cell viability assay (MTT), T-47D; conditions: Homo sapiens, T47D, 72 hrs treatment, 1 to 10 μM tested, ± SD, read-out: Observed IC50 for T-47D breast cancer cells
Procedure: as §1, with “T-47D,” for “MCF7,”, “ductal carcinoma: […]” for “adenocarcinoma: Minimum essential medium (Eagle) with 2 mM L-glutamine and Earle's BSS adjusted to contain 1.5 g/L sodium bicarbonate, 0.1 mM non-essential amino acids and 1.0 mM sodium pyruvate and supplemented with 0.01 mg/ml insulin, 90%; fetal bovine serum, 10%.”, “(1987). All the cells were seeded into 96-well microtitre plates and incubated at 37° C. under 5% CO2 atmosphere. For MCF7, T-47D and WS1, 3000 cells/100 μl/well were used and for HeLa, 1000 cells/100 μl/well were used.” for “(1987).”

[3] = tested on: HeLa cervical cancer cells; experiment: Cell viability assay (MTT), HeLa; conditions: Homo sapiens, 72 hrs treatment, 1 to 10 μM tested, ± SD, read-out: Observed IC50 for HeLa cervial cancer cells
Procedure: Experiments were performed using different cancer cell-lines, which were supplied by the American Type Culture Collection (ATCC), Rockville, Md., USA, and maintained in the recommended culturing media. The detailed steps and condition for cell culture are described as the following: HeLa, humen cervical adenocarcinoma: Minimum essential medium (Eagle) with 2 mM L-glutamine and Earle's BSS adjusted to contain 1.5 g/L sodium bicarbonate, 0.1 mM non-essential amino acids and 1.0 mM sodium pyruvate and supplemented with 0.01 mg/ml insulin, 90%; fetal bovine serum, 10%. Tamoxifen is obtained from Sigma-Aldrich. All test samples were dissolved in absolute ethanol and serial diluted to the testing concentrations. For blank sample, absoluted ethanol was used. The final organic solvent content for all cell assays were less than or equal to 0.1%. The cell viability assay was conducted by using the method described by J. Carmichael, et al in Cancer Research 47:936 (1987). All the cells were seeded into 96-well microtitre plates and incubated at 37° C. under 5% CO2 atmosphere. For MCF7, T-47D and WS1, 3000 cells/100 μl/well were used and for HeLa, 1000 cells/100 μl/well were used. […] After additional 72 hours of incubation at 37° C. under 5% CO2 atmosphere, the cell were then collected and evaluated using MTT assay to assess the cell viability by using the method mentioned above. […]

## CC/C(=C(\c1ccccc1)c1ccc(OCCN(C)C)cc1)c1ccccc1 [tamoxifen (TMA), tamoxifen, reference compound]
[1]
  IC50: 6.35 ± 0.45 µM
[2]
  IC50: 5.5 ± 0.21 µM
[3]
  IC50: 6.1 ± 0.53 µM
